In series [1] the test system is HeLa-ACE2 cells. The series is described as follows: cells. The conditions noted are these: Homo sapiens, HeLa-ACE2, read-out: HeLa-ACE-2 EC50 [μM] (Geomeans, n ≥ 2). It is filed as cell-based.
Series [2] has as its system SARS-CoV-2.
In series [3] the test system is SARS-CoV-2. The series is described as follows: microbe, parasite or virus in culture. The conditions noted are these: Severe acute respiratory syndrome coronavirus 2, HeLa-ACE2, 24 h, read-out: CoV-2 EC50 [μM] (Geomeans, n ≥ 2).

Counter-ions that a name gives are not always drawn. Where only a bound is given, the exact number is not on record here.

For the compound `CN1C[C@@H]2c3ccccc3Oc3ccc(Cl)cc3[C@H]2C1` (racemic) [Asenapine maleate], the half-maximal effective concentration (EC50) in series [1] was over 9.6 µM; in series [3] it was over 2.43 µM. Besides, the “HeLa-ACE2 CC50/CoV-2 EC50” value in series [2] was over 14.68.

These data come from patent publication US20230346820A1, “METHODS AND COMPOSITIONS FOR THE TREATMENT OF SARS-COV-2” (priority 2020, published 2023).
